Laboratory results taken from PubChem BioAssay AID493014 (National Center for Advancing Translational Sciences (NCATS), 2011).
The list shows a part of the results. The main result of the screen is listed elsewhere. These columns were measured beside it and carry no call. Most of these compounds were active or inconclusive in the main read-out, so they are no random draw. Words in brackets tell the shape of the fitted curve; partial curves, single points and poor fits give uncertain potencies.

Experiment: qHTS Assay to Find Inhibitors of Chronic Active B-Cell Receptor Signaling
Details: ABC-DLBCL IkBa-CBG/CBR reporter, luminescence ratio (green luciferase fused to IkBa over red control in TMD8 lymphoma cells), 4 h
How it was run: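 TMD8 human ABC-DLBCL cells with doxycycline-inducible IκBα–green luciferase fusion and unfused red luciferase, in 0.5% FBS medium; compounds up to 46 uM, 4 h at 37C. Green/red luminescence ratio, filter-overlap corrected, fitted to concentration-response curves.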

[1] = measured here: CBR red luminescence, cell number
[2] = measured here: IkBa-CBG green luminescence

Compound	AC50 [1]	AC50 [2]
O=C(N/N=C/C=C/c1ccccc1)c1ccccn1	7.94 µM [falling, partial curve, poor fit]	
CCCS(=O)(=O)c1ncc(Cl)c(C(=O)N2CCN(c3ccc(OC)cc3)CC2)n1	35.5 µM [falling, single point]	
Cc1c(C)n(CCN(C)C)c2ncnc(NCc3ccccc3)c12	20 µM [rising, single point]	
O=C1c2ccccc2S(=O)(=O)c2cc(C(=O)N(c3ccccn3)c3ccccn3)ccc21	20.6 µM [rising, partial curve]	14.6 µM [falling, partial curve, poor fit]
COc1ccc(C(=O)/C=C/c2ccccc2C(F)(F)F)cc1	10 µM [falling, partial curve, poor fit]	
COCCN(C(=O)c1ccco1)C(C(=O)NC1CCCC1)c1cccs1 (stereo unspecified)	9.2 µM [rising, partial curve, poor fit]	
CC(=O)Nc1cccc(C(=O)N(CCc2ccccc2)Cc2ccccc2)c1	0.447 µM [rising, full curve, poor fit]	
COC(=O)c1ccc(NC(=O)c2ccc(NC(=O)c3ccco3)cc2)cc1	10 µM [falling, partial curve, poor fit]	
CCC(C)N(C(=O)COC(=O)c1ccccc1SCC(=O)N1CCCC1)C1CCS(=O)(=O)C1 (stereo unspecified)	12.6 µM [falling, partial curve, poor fit]	
Cc1ccc(C(=O)OC/C(O)=C(\C#N)c2nc3ccccc3[nH]2)cc1S(=O)(=O)N1CCOCC1	16.4 µM [falling, partial curve]	
COc1ccc(C2C(C(=O)Nc3cccc(C)n3)c3ccccc3C(=O)N2C)cc1 (stereo unspecified)	17.8 µM [rising, partial curve, poor fit]	
Cn1cc(/C=N/NC(N)=S)c2ccccc21	22.4 µM [falling, partial curve, poor fit]	35.5 µM [falling, single point]
CCOC(=O)C1=C(C)NC(C)=C(C(=O)OCC)C1c1ccccn1	12.6 µM [rising, partial curve, poor fit]	
COc1cc(/C=C2\SC(=O)N(CC(=O)Nc3ccccc3F)C2=O)cc(Cl)c1O	5.62 µM [falling, partial curve]	
O=C(Nc1cccc(C(=O)Nc2ccccc2F)c1)c1ccccc1	14.1 µM [falling, single point]	
O=C(NCCN1CCCCC1)Nc1ccccc1Cl	10 µM [rising, partial curve, poor fit]	
CCCN(C(=O)c1cccs1)c1nnc(-c2ccncc2)s1	1.26 µM [falling, partial curve, poor fit]	
Cc1cc(OCC(=O)N(C)C)c2c(-c3ccccc3)cc(=O)oc2c1	13 µM [rising, partial curve]	
CC(C)C(=O)N1CCN(c2ccc(NC(=O)c3ccc4c(c3)OCCO4)cc2)CC1	0.708 µM [falling, full curve, poor fit]	
Cc1occc(=O)c1OC(=O)Nc1ccc(Cl)c(Cl)c1	2.31 µM [rising, partial curve]	
COc1cc(NC(=O)c2cc(C(C)C)on2)cc(OC)c1OC		15.8 µM [falling, partial curve, poor fit]

Compounds shown so far that have a furan ring, fused or not, in the order listed:
Compound	AC50 [1]	AC50 [2]
COCCN(C(=O)c1ccco1)C(C(=O)NC1CCCC1)c1cccs1 (stereo unspecified)	9.2 µM [rising, partial curve, poor fit]	
COC(=O)c1ccc(NC(=O)c2ccc(NC(=O)c3ccco3)cc2)cc1	10 µM [falling, partial curve, poor fit]	

The listing continues.

Compound	AC50 [1]	AC50 [2]
C[C@@H]1C[C@H]2[C@@H]3C[C@H](F)C4=CC(=O)C=C[C@]4(C)[C@@]3(Cl)[C@@H](O)C[C@]2(C)[C@H]1C(=O)COC(=O)C(C)(C)C	2.06 µM [rising, full curve, poor fit]	
COc1ccc(NC(=O)NS(=O)(=O)c2ccc(C)cc2)c(OC)c1	11.2 µM [rising, partial curve, poor fit]	
Cc1onc(-c2ccccc2)c1C(=O)N1CCN(Cc2ccc3c(c2)OCO3)CC1	0.316 µM [rising, full curve]	
O=C1c2cccnc2Oc2ccc(Cl)cc2N1Cc1ccc(F)cc1	29.1 µM [falling, single point]	
Cc1cccc(NC(=O)Cn2c(=O)n3nc(CCn4nc(C)cc4C)nc3c3ccccc32)c1	3.98 µM [falling, single point]	
O=C(Nc1cccnc1Cl)c1ccc(S(=O)(=O)N2CCCCCC2)cc1	6.51 µM [falling, partial curve, poor fit]	
CCOc1cccc2sc(N(Cc3cccnc3)C(=O)C3CCCCC3)nc12	2.24 µM [falling, full curve]	
Cc1c(C(=O)N2CCN(c3ccccn3)CC2)sc2ncnc(N3CCOCC3)c12	4.11 µM [rising, single point]	
O=C(Nc1cnccn1)Nc1ccc(Cl)cc1Cl	7.08 µM [rising, full curve, poor fit]	
O=C(N/N=C\c1cn(-c2ccccc2)nc1-c1ccccc1)c1ccc2c(c1)OCO2	8.91 µM [falling, partial curve]	
CCOC(=O)N1CCC(n2c(SCC(=O)NCc3ccco3)nc3ccsc3c2=O)CC1	29.1 µM [falling, single point]	
CC(C)Cc1nc(N2CCC(C(N)=O)CC2)c2nnn(Cc3ccccc3)c2n1	2.82 µM [falling, partial curve, poor fit]	
Nc1ncnc2c1ncn2[C@@H]1O[C@H](CNS(=O)(=O)c2ccc(-c3ccno3)s2)[C@@H](O)[C@H]1O	16.4 µM [rising, partial curve, poor fit]	
COc1cc(C(=O)OCCC(C)C)cc(OC)c1O	0.794 µM [rising, full curve, poor fit]	
Cc1[nH]c(=O)c(C(=O)/C=C/c2ccccc2)c2c1CCCC2	7.31 µM [falling, partial curve]	
Cn1c(SCCOc2ccccc2Cl)nnc1-c1cccs1	32.6 µM [falling, single point]	
Cn1cncc1C#Cc1c(C=O)[nH]c2ccccc12	10.3 µM [falling, partial curve]	
O=C(CNC(=O)c1sc2ccccc2c1Cl)Nc1ccccc1F	9.2 µM [falling, partial curve]	
CSc1nc2nc(-c3ccccc3)cc(=O)n2[nH]1	4.11 µM [falling, partial curve]	
CC(=O)c1ccc(N2C(=O)N(Cc3cccc(C(F)(F)F)c3)c3ccccc3S2(=O)=O)cc1	28.2 µM [falling, single point]	
CC(C)(C)NC(=O)NC(=O)CSc1nnc(-c2ccccc2F)n1N	29.1 µM [rising, single point]	

Compound	AC50 [1]	AC50 [2]
CS(=O)(=O)N1CCN(C(=O)c2ccncc2)CC1	3.16 µM [rising, partial curve, poor fit]	
COc1ccccc1NS(=O)(=O)c1cccc(NC(=O)Nc2ccccc2)c1	13 µM [falling, partial curve]	23.1 µM [rising, partial curve, poor fit]
O=C(Cn1nc(-c2ccccc2)ccc1=O)NCc1ccc(F)cc1Cl	2.82 µM [falling, single point]	
COc1ccccc1Nc1nn2c(=O)c3ccc(C(=O)N4CCC(C)CC4)cc3nc2s1	15.8 µM [falling, partial curve, poor fit]	
Cn1nnnc1SCC(=O)N1CCN(c2ccc(Cl)cc2)CC1	6.51 µM [rising, single point]	
CCOC(=O)c1[nH]c(C)c(C(=O)OCC)c1C	1.64 µM [rising, full curve, poor fit]	14.6 µM [falling, partial curve]
CCOC(=O)c1ccccc1NC(=O)N[C@@H](C)C(=O)OC	23.1 µM [falling, single point]	
CCN(Cc1ccncc1)C(=O)c1cc(COc2ccc(C)c(C)c2)on1	17.8 µM [falling, single point]	
CCc1ccc(C(=O)CSc2nnc(C3CC3)n2C2CC2)cc1	4.11 µM [rising, full curve]	
COCc1c(C(=O)OCc2c(C)noc2C)oc2ccccc12	0.282 µM [falling, full curve, poor fit]	
CCCCOC(=O)Nc1nnc(SCCOc2ccc(C)cc2)s1	4.61 µM [rising, single point]	
Cc1cc(OCc2ccc(C(=O)n3cccn3)o2)ccc1Cl	10.3 µM [falling, partial curve]	
C=CCOc1cccc(C2/C(=C(/O)c3ccc(C)cc3)C(=O)C(=O)N2CCN2CCOCC2)c1 (stereo unspecified)	11.2 µM [falling, partial curve, poor fit]	
Cc1cccc(C(=O)Nc2c3c(nn2-c2ccc(Cl)cc2)CS(=O)(=O)C3)c1		35.5 µM [rising, partial curve, poor fit]
CCN(C(=O)COC(=O)c1c(C)noc1C)C1CCS(=O)(=O)C1 (stereo unspecified)	10 µM [falling, partial curve]	
CCOC(=O)C1CCN(C(=O)Nc2ccc3nc(-c4ccco4)c(-c4ccco4)nc3c2)CC1	16.4 µM [falling, partial curve]	
O=C(/C=N/NC(=O)c1ccccc1Br)c1ccccc1	12.6 µM [falling, partial curve]	35.5 µM [falling, single point]
O=C(COC(=O)c1ccc(Br)o1)Nc1ncc([N+](=O)[O-])s1	2.59 µM [rising, partial curve, poor fit]	
CCCCC(=O)Nc1ccc(NC(=O)c2ccccc2[N+](=O)[O-])cc1OC	0.651 µM [rising, full curve, poor fit]	

Single records (already shown):
COc1ccccc1Nc1nn2c(=O)c3ccc(C(=O)N4CCC(C)CC4)cc3nc2s1 is listed as AC50 [1]: 15.8 µM [falling, partial curve, poor fit]
Cc1cc(OCc2ccc(C(=O)n3cccn3)o2)ccc1Cl is listed as AC50 [1]: 10.3 µM [falling, partial curve]
